In paper PMC7498349:
These are yes or no findings as the source states them, for the method shown. Binding seen in cells or lysates may run through a third protein. Some binding calls cover weakened binding; strength is not graded here. Blank lines part the entries; values can stand above or below the substance they belong to.

The chains behind the UniProt entries cited, without tags or fusion partners. Where a name states a change or a piece, a line headed by the entry shows the natural chain unless it says otherwise. A line that says so, or that is headed by a name, gives the form on record, which may keep a tag or linker.
UniProt Q8N6T7: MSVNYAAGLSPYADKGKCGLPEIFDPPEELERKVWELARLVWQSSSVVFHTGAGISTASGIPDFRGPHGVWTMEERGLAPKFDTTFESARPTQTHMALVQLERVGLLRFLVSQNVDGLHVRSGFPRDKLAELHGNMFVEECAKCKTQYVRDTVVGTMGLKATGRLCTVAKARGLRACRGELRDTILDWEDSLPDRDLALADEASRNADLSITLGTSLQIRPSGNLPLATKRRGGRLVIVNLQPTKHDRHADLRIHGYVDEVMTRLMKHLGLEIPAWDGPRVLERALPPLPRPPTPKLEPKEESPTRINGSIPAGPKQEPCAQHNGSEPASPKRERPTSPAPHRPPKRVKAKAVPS
UniProt Q92466: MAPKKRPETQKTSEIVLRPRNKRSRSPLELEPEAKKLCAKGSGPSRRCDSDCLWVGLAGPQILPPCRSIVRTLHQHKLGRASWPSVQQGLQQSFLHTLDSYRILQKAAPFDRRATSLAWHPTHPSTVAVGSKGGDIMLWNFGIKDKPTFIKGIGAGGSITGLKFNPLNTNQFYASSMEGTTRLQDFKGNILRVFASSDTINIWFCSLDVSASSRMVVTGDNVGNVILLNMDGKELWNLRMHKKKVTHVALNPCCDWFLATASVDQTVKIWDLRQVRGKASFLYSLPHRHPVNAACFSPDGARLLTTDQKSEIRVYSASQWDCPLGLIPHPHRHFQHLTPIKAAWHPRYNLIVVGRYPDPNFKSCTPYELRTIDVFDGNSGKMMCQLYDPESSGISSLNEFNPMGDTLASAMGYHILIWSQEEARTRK
DDB2-2KR-GFP (human (cDNA derived from 293 cells)) (Q92466, form named): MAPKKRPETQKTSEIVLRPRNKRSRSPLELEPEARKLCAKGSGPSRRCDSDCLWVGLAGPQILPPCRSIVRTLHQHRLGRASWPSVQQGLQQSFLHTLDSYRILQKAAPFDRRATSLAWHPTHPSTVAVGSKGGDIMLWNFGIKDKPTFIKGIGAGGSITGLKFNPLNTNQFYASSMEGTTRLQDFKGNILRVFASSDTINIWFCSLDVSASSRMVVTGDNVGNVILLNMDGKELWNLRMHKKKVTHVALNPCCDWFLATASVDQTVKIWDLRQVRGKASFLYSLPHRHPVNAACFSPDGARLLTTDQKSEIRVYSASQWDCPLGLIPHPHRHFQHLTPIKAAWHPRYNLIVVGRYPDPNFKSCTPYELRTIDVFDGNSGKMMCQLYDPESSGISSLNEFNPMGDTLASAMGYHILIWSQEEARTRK

Legend:
[1] = molecular target: full-length SIRT6-Flag (UniProt Q8N6T7); assay: co-IP; lysates of transfected HEK293 cells (20 mM HEPES pH 8.0, 0.2 mM EDTA, 5% glycerol, 150 mM NaCl, 1% NP-40; sonicated); IP with anti-Flag, anti-HA, anti-GFP or GFP-Trap, western blot; in some panels with or without UVC (20 J/m^2), SIRT6 depletion or ethidium bromide pretreatment
[2] = molecular target: HA-tagged DDB2 (human (cDNA derived from 293 cells)) (UniProt Q92466); assay: as above
[3] = molecular target: full-length DDB2-GFP (human (cDNA derived from 293 cells)) (UniProt Q92466); assay: as above
[4] = molecular target: DDB2 (in the melanoma cell line A875) (UniProt Q92466); assay: co-IP; melanoma cell line A875; details only in Supplementary Figure S7A, B
[5] = molecular target: SIRT6 R65A (UniProt Q8N6T7); assay: co-IP; with or without UV irradiation; details only in Supplementary Figures S10 and S14
[6] = molecular target: SIRT6 H133Y (UniProt Q8N6T7); assay: as above
[7] = molecular target: DDB2-Flag (human (cDNA derived from 293 cells)) (UniProt Q92466); assay: co-IP; lysates of transfected HEK293 cells (20 mM HEPES pH 8.0, 0.2 mM EDTA, 5% glycerol, 150 mM NaCl, 1% NP-40; sonicated); IP with anti-Flag, anti-HA, anti-GFP or GFP-Trap, western blot; in some panels with or without UVC (20 J/m^2), SIRT6 depletion or ethidium bromide pretreatment
[8] = molecular target: DDB2-2KR-GFP (human (cDNA derived from 293 cells)) (UniProt Q92466); assay: as above

Substance: DDB2 (from UniProt Q92466 1-427)
- binding [1]: binds

Substance: SIRT6 (from UniProt Q8N6T7 1-355) (enzyme)
- binding [2]: binds

Substance: SIRT6 ΔC-Flag (1-271 aa) (from UniProt Q8N6T7 1-271) (domain or fragment)
- binding [3]: binds

Substance: DDB2 (construct not stated; Supplementary Figures S9C, S10, S14) (from UniProt Q92466 1-427)
- binding [5]: binds
- binding [6]: binds

Substance: p97 (from UniProt P55072 1-806) (enzyme)
- binding [7]: binds
- binding [3]: binds
- binding [8]: binds

Substance: deacetylase core fragment SIRT6 ΔNΔC-Flag (49–271 aa) (from UniProt Q8N6T7 49-271) (domain or fragment)
- binding [3]: binds

The next lines start with the values.

- binding [3]: binds
Substance: SIRT6 ΔN-Flag (49–355 aa) (from UniProt Q8N6T7 49-355) (domain or fragment)

- binding [4]: binds
Substance: SIRT6 (in the melanoma cell line A875) (from UniProt Q8N6T7 1-355) (enzyme)

- binding [1]: binds
Substance: full-length DDB2-GFP (from UniProt Q92466 1-427)

- binding [3]: binds
Substance: full-length SIRT6-Flag (from UniProt Q8N6T7 1-355) (enzyme)

- binding [1]: binds
Substance: DDB2 fragment 1-GFP (1–100 aa) (from UniProt Q92466 1-100) (domain or fragment)
